# Test results from patent US10676710B2, “Cell culture compositions with antioxidants and methods for polypeptide production” (Genentech, Inc., priority 2013, dated 2020).
# Test system: IgG1 monoclonal antibody
# Assay: Antioxidant incubation screening: color intensity of antibody composition after incubation in Media 1/Media 2 mixture
# Conditions: 1X test concentration in Media 1 + Media 2 mixture, 2 g/L IgG1 mAb, 5 days 37° C.; protein A pool concentrated to 150 g/L; normalized to positive control
# Experimental: For antioxidant screening, a total volume of 40 ml media was prepared by mixing 1 part basal Media 1 and 0.3 part feed Media 2 to mirror a representative ratio of media used in cell culture conditions (Table 5). […] The samples were incubated at 37° C. with shaking at 250 rpm for a five day incubation period.
# After incubation, the monoclonal antibody was purified using protein A affinity chromatography. The pool was concentrated to 150 g/L using Amicon Centricon centrifugal filter devices (Millipore Corporation, Billerica, Mass.). Color intensity of the concentrated antibody composition was measured in the concentrated protein A pool using an assay wherein higher numerical values indicate higher color intensity and lower numerical values indicate lower color intensity. The numerical results were normalized to the positive control, where the value for the positive control was set at 0% change in color intensity.
row,SMILES,effect on color of the antibody composition
1,"Cn1cncc1C[C@H](NC(=O)CCN)C(=O)O.O=[N+]([O-])O [anserine, (2S)-2-(3-aminopropanamido)-3-(1-methyl-1H-imidazol-5-yl)propanoic acid; nitric acid]",reduce the color
2,"COc1ccc(O)c(C(C)(C)C)c1 [butylated hydroxyanisole, 2-tert-butyl-4-methoxyphenol]",reduce the color
3,"NCCC(=O)N[C@@H](Cc1cnc[nH]1)C(=O)O [carnosine, (2S)-2-(3-aminopropanamido)-3-(1H-imidazol-5-yl)propanoic acid]",reduce the color
4,"NCCS [cysteamine, 2-aminoethane-1-thiol]",increase the color
5,"O=C([O-])c1cc(O)ccc1O.[Na+] [gentisic acid, sodium 2,5-dihydroxybenzoate]",increase the color
6,"C[C@]12CCC(=O)C=C1CC[C@@H]1[C@@H]2[C@@H](O)C[C@@]2(C)[C@H]1CC[C@]2(O)C(=O)CO [hydrocortisone, (1S,2R,10S,11S,14R,15S,17S)-14,17-dihydroxy-14-(2-hydroxyacetyl)-2,15-dimethyltetracyclo[8.7.0.0^{2,7}.0^{11,15}]heptadec-6-en-5-one, reference compound]",increase the color
7,"O=C(O)CCCC[C@@H]1CCSS1 [lipoic acid, 5-[(3R)-1,2-dithiolan-3-yl]pentanoic acid]",reduce the color
8,"CC(S)C(=O)NCC(=O)O (stereo not drawn) [mercaptopropionyl glycine, 2-(2-sulfanylpropanamido)acetic acid]",increase the color
9,"C[C@@H]1O[C@@H](Oc2c(-c3ccc(O)c(O)c3)oc3cc(O)cc(O)c3c2=O)[C@H](O)[C@H](O)[C@H]1O [quercitrin hydrate, 2-(3,4-dihydroxyphenyl)-5,7-dihydroxy-3-{[(2S,3R,4R,5R,6S)-3,4,5-trihydroxy-6-methyloxan-2-yl]oxy}-4H-chromen-4-one]",reduce the color
